# Laboratory results from patent US20040097712A1 (Amgen, published 2004).
# By UniProt entry, the sequences of proteins in these tests, tags left out. Residues count along the entry.
# UniProt P14778, residues 18-336: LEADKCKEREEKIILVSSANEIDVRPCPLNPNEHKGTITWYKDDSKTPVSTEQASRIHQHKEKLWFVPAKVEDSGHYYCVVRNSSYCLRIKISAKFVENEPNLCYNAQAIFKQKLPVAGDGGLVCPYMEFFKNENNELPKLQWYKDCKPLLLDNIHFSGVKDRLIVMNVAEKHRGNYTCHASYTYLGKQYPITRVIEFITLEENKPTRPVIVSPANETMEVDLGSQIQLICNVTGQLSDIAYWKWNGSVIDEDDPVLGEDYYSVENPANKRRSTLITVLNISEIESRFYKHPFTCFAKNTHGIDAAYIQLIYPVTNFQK
# UniProt P18510, residues 26-177: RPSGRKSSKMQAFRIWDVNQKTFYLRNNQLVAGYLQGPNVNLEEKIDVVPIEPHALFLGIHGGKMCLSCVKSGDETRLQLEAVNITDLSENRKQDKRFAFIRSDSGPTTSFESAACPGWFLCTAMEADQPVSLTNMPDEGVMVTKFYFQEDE
# Results are given in words; binding and its absence hold for the method and conditions named. Some binding calls cover weakened binding; strength is not graded here.
# Target: biotinylated IL-1R1 (recombinant, on streptavidin-coated beads) (UniProt P14778)
# Assay: ECL competition of IL-1R1/IL-1beta/IL-1RAcP complex formation (IL-1beta 1 nM, ruthenium-IL-1RAcP 5 nM, biotinylated IL-1R1 on beads)
substance,measurement,value
Interleukin-1 receptor antagonist (IL-1ra) (from UniProt P18510 26-177) (ligand),binding,binds
